Laboratory results: patent US20050048070A1
Results are given in words; binding and its absence hold for the method and conditions named. Binding calls can cover weak binding; strength is not graded here.

Assays:
[1] = target: K8(1-265)/intact K18 heterotypic complex (human); assay: summary map of the heterotypic association assay: GST deletion protein incubated with the complementary keratin, then stained with COU-1
[2] = target: K8(1-265)/intact K18 heterotypic complex (human); assay: heterotypic association assay: blotted K8 GST fusion proteins incubated with purified intact K18, then stained with COU-1
[3] = target: K8(1-124)/intact K18 heterotypic complex (human); assay: SPR (BIAcore), complex immobilized, COU-1 injected
[4] = target: K8(1-124)/K18(1-124) heterotypic complex (human); assay: SPR (BIAcore), complex immobilized, COU-1 injected

Measured: binding

B1: human monoclonal IgM antibody COU-1 (antibody, V domains shown)
VH: GAEVKKPGASVKVSCKASDYTFSSYYMHWVRQAPGQGLEWMGIINPSGGSTSYAQKFQGRVTMTRDTSTNTVYMELSSLRSEDTAVYYCARDQVVVAATLSNYGMDVWGQGTTVTVSS
VL: ELTQSPGTLSLSPGERATLSCRASQSVSSSYLAWYQQKPGQAPRLLIYDASNRATGIPARFSGSGSGTDFTLTISSLEPEDFAVYYCQQGTNWGIAFGQGTRLDIKR
binds: [1] | [2] | [3] | [4]
